Test results from paper PMC9239968.
These are yes or no findings as the source states them, for the method shown. In cells and extracts the contact can be indirect. Some entries that bind do so weakly or less than the wild type. Each block holds one binder with its values, some of them ahead of it.

Experiments:
[1] = target: T1, RIP1 (mouse (endogenous in mouse brain)), Q60855; test: co-IP; lysates of whole-brain tissue from AC-infected (21 days) and normal control mice; immunoprecipitated with anti-RIP1 antibody or IgG control, protein G agarose, 4 °C; immunoblotting of the precipitate; details: remark: other sources report otherwise
T1 chain: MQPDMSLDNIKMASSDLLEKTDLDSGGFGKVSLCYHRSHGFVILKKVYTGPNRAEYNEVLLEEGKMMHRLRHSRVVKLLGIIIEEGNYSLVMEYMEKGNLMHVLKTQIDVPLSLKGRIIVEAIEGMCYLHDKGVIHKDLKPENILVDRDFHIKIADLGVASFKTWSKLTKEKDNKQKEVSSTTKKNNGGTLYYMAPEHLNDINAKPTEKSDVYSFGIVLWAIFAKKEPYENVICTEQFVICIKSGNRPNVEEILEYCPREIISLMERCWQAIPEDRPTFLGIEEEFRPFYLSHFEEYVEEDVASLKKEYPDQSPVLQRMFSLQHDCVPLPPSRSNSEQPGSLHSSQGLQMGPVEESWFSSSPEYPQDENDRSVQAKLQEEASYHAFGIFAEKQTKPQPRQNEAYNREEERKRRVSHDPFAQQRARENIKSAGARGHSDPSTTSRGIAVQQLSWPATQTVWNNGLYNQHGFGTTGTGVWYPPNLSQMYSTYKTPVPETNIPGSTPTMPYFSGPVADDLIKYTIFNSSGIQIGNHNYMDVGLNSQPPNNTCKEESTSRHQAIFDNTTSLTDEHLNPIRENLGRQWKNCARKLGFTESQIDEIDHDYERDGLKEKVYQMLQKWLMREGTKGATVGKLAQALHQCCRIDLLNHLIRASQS

[2] = target: T2, RIP1 (mouse (endogenous in mouse brain)) (UniProt Q60855); test: as above
T2 sequence: T1 chain

[3] = target: receptor interacting kinase protein3 (RIP3) (mouse (endogenous in mouse brain)), Q9QZL0; test: co-IP; lysates of brain tissue from AC-infected (21 days) and normal control mice; immunoprecipitated with anti-RIP3 antibody or IgG antibody, protein G agarose, 4 °C; immunoblotting of the precipitate; details: remark: other sources report otherwise
[4] = target: receptor interacting kinase protein3 (RIP3) (mouse (endogenous in mouse brain)) (UniProt Q9QZL0); test: as above

B2: FADD (protein, UniProt Q61160 1-205)
chain: MDPFLVLLHSLSGSLSGNDLMELKFLCRERVSKRKLERVQSGLDLFTVLLEQNDLERGHTGLLRELLASLRRHDLLQRLDDFEAGTATAAPPGEADLQVAFDIVCDNVGRDWKRLARELKVSEAKMDGIEEKYPRSLSERVRESLKVWKNAEKKNASVAGLVKALRTCRLNLVADLVEEAQESVSKSENMSPVLRDSTVSSSETP
- binding [2]: binds

B3: FADD, Q61160 1-205 (protein)
chain: B2 chain
- binding [3]: no binding

B4: MLKL (protein, UniProt Q9D2Y4 1-472)
chain: MDKLGQIIKLGQLIYEQCEKMKYCRKQCQRLGNRVHGLLQPLQRLQAQGKKNLPDDITAALGRFDEVLKEANQQIEKFSKKSHIWKFVSVGNDKILFHEVNEKLRDVWEELLLLLQVYHWNTVSDVSQPASWQQEDRQDAEEDGNENMKVILMQLQISVEEINKTLKQCSLKPTQEIPQDLQIKEIPKEHLGPPWTKLKTSKMSTIYRGEYHRSPVTIKVFNNPQAESVGIVRFTFNDEIKTMKKFDSPNILRIFGICIDQTVKPPEFSIVMEYCELGTLRELLDREKDLTMSVRSLLVLRAARGLYRLHHSETLHRNISSSSFLVAGGYQVKLAGFELSKTQNSISRTAKSTKAERSSSTIYVSPERLKNPFCLYDIKAEIYSFGIVLWEIATGKIPFEGCDSKKIRELVAEDKKQEPVGQDCPELLREIINECRAHEPSQRPSVDGRSLSGRERILERLSAVEESTDKKV
- binding [4]: binds

B6: RIP1, Q60855 1-656 (protein)
chain: T1 chain
- binding [3]: no binding

More lines, now with the values ahead:

- binding [1]: no binding
B1: receptor interacting kinase protein3 (RIP3), Q9QZL0 1-486 (protein)
chain: MSSVKLWPTGASAVPLVSREELKKLEFVGKGGFGVVFRAHHRTWNHDVAVKIVNSKKISWEVKAMVNLRNENVLLLLGVTEDLQWDFVSGQALVTRFMENGSLAGLLQPECPRPWPLLCRLLQEVVLGMCYLHSLNPPLLHRDLKPSNILLDPELHAKLADFGLSTFQGGSQSGSGSGSGSRDSGGTLAYLDPELLFDVNLKASKASDVYSFGILVWAVLAGREAELVDKTSLIRETVCDRQSRPPLTELPPGSPETPGLEKLKELMIHCWGSQSENRPSFQDCEPKTNEVYNLVKDKVDAAVSEVKHYLSQHRSSGRNLSAREPSQRGTEMDCPRETMVSKMLDRLHLEEPSGPVPGKCPERQAQDTSVGPATPARTSSDPVAGTPQIPHTLPFRGTTPGPVFTETPGPHPQRNQGDGRHGTPWYPWTPPNPMTGPPALVFNNCSEVQIGNYNSLVAPPRTTASSSAKYDQAQFGRGRGWQPFHK

- binding [2]: binds
B5: caspase-8 (protein, UniProt O89110 1-480)
chain: MDFQSCLYAIAEELGSEDLAALKFLCLDYIPHKKQETIEDAQKLFLRLREKGMLEEGNLSFLKELLFHISRWDLLVNFLDCNREEMVRELRDPDNAQISPYRVMLFKLSEEVSELELRSFKFLLNNEIPKCKLEDDLSLLEIFVEMEKRTMLAENNLETLKSICDQVNKSLLGKIEDYERSSTERRMSLEGREELPPSVLDEMSLKMAELCDSPREQDSESRTSDKVYQMKNKPRGYCLIINNHDFSKAREDITQLRKMKDRKGTDCDKEALSKTFKELHFEIVSYDDCTANEIHEILEGYQSADHKNKDCFICCILSHGDKGVVYGTDGKEASIYDLTSYFTGSKCPSLSGKPKIFFIQACQGSNFQKGVPDEAGFEQQNHTLEVDSSSHKNYIPDEADFLLGMATVKNCVSYRDPVNGTWYIQSLCQSLRERCPQGDDILSILTGVNYDVSNKDDRRNKGKQMPQPTFTLRKKLFFPP
